The list shows a part of the results.
compound: O=C1NC(=O)C(c2cnc3ccccn23)=C1c1cn2c3c(cc(F)cc13)CN(C(=O)N1CCCCC1)CC2; experiment: log2 fold change, soluble protein after heating vs DMSO (PISA); higher = thermal stabilisation; K562 cells, 10 uM, 30 min; active = over 0.2 and 3.5 SD of the protein, either way, in both replicates (recomputed)
In short: (§1)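 K562 cells at 2×10^6 cells/mL were exposed to 10 μM compound for 30 min, then aliquots were heated for 3 min across 48°C-58°C, pooled, and extracted in PBS containing 0.5% NP-40 at 4°C. The supernatant after 21,000xg for 90 min was taken as soluble protein and measured by TMTpro 16plex LC-MS/MS with channel sums equalised. Thermal stability is reported relative to control samples, with values from duplicates. Fold changes are given on a log2 scale.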

Sequences of proteins named here, by UniProt entry; tags and fusion partners are left off. A change or cut given only in a name is not applied to a line headed by its entry.
UniProt Q5HYJ3: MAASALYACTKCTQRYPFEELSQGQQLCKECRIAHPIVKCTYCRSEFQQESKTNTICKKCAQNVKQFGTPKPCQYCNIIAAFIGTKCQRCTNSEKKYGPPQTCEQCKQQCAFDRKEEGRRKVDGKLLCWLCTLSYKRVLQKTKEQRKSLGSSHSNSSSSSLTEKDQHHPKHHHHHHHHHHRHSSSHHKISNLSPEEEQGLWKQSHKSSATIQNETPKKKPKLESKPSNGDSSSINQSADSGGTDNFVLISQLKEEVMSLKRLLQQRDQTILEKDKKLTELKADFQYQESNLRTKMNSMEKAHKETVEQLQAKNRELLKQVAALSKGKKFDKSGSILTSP
UniProt Q6UN15: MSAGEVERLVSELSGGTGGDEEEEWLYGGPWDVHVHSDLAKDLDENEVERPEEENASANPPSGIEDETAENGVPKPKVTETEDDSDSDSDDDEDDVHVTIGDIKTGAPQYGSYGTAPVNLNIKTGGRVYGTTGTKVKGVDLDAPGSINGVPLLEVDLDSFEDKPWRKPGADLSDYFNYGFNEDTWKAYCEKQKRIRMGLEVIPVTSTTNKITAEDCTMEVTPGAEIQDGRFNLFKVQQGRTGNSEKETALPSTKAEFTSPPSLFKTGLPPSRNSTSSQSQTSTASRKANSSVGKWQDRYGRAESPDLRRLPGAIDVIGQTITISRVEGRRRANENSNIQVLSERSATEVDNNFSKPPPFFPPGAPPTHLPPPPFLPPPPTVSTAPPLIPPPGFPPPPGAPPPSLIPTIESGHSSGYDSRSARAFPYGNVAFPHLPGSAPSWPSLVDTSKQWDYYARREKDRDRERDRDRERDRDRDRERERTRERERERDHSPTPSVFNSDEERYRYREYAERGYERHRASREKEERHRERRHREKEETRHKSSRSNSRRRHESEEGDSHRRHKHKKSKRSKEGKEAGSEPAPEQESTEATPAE
UniProt Q8NEZ5: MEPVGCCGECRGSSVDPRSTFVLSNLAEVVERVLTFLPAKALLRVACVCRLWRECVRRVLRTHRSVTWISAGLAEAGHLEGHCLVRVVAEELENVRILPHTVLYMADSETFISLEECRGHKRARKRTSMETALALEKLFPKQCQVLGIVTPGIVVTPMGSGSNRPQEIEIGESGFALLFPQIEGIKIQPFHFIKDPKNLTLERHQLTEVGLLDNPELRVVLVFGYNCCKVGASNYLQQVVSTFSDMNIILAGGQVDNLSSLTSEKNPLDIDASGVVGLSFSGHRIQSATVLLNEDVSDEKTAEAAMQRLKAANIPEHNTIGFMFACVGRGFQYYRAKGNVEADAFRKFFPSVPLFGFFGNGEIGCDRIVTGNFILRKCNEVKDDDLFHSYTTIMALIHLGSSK
UniProt Q658Y4: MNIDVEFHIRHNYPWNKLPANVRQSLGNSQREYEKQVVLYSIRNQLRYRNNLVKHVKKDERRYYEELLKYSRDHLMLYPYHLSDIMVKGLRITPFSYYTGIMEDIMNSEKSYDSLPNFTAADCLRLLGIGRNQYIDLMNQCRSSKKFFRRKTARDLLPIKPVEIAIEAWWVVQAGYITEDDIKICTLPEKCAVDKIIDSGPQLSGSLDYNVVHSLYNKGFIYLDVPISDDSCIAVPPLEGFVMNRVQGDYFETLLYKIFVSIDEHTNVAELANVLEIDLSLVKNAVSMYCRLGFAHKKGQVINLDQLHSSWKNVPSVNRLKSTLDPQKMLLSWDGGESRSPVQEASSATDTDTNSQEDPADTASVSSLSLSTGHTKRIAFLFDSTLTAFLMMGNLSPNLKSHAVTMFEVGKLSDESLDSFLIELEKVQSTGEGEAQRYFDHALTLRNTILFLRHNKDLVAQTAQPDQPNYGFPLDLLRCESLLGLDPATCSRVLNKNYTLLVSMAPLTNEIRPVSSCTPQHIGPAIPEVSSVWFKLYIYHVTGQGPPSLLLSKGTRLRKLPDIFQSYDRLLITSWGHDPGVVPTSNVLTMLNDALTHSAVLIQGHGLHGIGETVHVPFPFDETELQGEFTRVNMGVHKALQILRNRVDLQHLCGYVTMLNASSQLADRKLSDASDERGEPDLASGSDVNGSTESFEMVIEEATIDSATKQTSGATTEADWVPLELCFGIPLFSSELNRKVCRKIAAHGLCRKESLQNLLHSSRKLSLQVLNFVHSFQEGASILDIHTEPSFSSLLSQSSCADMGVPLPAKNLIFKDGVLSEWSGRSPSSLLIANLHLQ
UniProt Q5T1M5: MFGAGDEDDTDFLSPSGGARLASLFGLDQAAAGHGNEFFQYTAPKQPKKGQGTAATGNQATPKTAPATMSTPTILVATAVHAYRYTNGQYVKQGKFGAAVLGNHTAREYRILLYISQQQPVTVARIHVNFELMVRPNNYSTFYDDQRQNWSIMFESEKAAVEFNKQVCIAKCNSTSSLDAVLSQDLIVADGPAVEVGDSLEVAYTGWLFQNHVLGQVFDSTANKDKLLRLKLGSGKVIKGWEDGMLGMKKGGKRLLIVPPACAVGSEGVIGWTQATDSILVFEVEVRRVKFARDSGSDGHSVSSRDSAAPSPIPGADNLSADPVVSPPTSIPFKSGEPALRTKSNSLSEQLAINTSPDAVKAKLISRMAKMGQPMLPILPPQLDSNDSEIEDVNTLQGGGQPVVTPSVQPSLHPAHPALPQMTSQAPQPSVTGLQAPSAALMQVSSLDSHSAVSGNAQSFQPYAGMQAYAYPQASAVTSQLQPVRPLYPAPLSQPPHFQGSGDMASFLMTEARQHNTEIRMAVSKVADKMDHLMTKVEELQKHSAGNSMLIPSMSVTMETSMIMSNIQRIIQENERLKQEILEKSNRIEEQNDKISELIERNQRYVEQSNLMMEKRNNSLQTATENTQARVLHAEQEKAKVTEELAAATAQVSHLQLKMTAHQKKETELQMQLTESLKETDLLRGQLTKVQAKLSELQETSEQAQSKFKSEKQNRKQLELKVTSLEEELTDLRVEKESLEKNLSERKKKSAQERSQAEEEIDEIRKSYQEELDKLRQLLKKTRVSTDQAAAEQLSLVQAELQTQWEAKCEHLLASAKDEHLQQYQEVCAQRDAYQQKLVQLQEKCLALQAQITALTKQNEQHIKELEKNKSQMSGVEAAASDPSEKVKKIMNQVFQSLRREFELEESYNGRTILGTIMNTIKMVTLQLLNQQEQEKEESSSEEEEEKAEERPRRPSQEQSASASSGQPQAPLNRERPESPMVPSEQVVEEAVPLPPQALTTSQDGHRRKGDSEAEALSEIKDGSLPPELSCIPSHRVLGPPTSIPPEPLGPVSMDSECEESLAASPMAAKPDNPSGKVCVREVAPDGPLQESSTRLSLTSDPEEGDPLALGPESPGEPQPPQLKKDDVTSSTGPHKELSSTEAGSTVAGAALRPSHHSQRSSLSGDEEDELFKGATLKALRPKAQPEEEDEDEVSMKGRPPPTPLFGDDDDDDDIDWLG
UniProt Q6P4F2: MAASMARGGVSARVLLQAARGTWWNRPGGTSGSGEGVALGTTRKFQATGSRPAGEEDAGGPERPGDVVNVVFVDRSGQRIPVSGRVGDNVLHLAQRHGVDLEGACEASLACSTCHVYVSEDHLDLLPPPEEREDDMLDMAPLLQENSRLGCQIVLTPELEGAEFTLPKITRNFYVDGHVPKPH
UniProt Q14192: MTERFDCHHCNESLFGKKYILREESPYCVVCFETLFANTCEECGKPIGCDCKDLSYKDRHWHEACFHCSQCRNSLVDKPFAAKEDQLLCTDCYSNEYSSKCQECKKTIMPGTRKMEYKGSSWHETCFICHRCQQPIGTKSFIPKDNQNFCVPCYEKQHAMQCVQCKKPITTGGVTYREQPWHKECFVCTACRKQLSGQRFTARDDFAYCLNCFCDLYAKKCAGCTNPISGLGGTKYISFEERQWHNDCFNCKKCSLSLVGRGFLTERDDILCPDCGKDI
UniProt P22830: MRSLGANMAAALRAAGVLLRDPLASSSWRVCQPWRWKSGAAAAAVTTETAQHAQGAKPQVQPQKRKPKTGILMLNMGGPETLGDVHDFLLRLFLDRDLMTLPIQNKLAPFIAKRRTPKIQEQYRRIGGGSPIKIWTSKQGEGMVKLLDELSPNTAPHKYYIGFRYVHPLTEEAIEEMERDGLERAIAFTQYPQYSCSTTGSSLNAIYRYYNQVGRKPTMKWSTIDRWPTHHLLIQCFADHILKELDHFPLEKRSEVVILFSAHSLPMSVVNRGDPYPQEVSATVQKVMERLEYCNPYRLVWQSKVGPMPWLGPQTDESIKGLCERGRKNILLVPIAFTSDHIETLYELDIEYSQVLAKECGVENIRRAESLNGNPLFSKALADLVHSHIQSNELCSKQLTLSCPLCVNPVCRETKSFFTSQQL
UniProt A6NHQ2: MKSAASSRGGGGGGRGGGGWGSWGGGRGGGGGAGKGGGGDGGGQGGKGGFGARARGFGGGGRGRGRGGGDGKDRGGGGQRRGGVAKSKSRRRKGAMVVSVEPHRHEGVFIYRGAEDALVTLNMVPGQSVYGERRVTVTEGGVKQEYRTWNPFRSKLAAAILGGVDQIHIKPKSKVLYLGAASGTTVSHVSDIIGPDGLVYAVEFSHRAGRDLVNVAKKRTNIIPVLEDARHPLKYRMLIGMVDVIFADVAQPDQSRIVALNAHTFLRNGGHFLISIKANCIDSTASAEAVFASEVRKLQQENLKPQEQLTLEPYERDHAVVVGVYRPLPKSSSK
UniProt Q9HA64: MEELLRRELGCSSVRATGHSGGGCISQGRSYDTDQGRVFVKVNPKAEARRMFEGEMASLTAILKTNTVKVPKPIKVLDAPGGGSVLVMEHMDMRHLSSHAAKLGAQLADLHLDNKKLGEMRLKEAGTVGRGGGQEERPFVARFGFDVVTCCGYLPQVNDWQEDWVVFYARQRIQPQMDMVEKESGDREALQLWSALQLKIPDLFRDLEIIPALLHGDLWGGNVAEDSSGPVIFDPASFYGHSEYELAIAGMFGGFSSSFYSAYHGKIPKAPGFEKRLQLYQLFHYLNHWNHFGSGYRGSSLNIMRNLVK
UniProt Q9Y5Y0: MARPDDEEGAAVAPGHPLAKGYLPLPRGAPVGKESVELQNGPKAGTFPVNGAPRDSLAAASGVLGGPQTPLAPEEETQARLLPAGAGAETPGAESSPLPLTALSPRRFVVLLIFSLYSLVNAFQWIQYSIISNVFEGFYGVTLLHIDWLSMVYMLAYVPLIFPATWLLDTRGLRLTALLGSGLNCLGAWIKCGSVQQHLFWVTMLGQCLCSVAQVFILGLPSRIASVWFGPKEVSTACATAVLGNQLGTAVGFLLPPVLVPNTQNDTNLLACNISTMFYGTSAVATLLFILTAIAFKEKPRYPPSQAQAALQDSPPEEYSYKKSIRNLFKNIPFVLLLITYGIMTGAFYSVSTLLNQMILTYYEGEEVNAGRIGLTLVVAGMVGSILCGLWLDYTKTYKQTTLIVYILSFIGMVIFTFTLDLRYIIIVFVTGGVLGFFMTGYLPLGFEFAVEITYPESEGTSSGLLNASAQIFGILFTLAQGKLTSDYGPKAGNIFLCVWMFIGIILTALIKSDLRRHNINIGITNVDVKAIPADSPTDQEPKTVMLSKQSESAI
UniProt Q9UBU6: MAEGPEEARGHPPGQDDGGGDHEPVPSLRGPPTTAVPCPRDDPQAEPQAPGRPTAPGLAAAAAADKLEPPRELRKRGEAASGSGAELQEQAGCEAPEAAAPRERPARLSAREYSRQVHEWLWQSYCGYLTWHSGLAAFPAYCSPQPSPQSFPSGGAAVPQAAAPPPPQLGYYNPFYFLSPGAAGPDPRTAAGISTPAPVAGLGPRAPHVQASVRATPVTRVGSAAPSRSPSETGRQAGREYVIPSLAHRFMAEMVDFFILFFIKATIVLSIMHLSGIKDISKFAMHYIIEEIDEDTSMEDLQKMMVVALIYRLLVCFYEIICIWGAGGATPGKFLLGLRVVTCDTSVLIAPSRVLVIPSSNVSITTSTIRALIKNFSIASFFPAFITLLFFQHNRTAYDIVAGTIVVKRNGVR
UniProt O95684: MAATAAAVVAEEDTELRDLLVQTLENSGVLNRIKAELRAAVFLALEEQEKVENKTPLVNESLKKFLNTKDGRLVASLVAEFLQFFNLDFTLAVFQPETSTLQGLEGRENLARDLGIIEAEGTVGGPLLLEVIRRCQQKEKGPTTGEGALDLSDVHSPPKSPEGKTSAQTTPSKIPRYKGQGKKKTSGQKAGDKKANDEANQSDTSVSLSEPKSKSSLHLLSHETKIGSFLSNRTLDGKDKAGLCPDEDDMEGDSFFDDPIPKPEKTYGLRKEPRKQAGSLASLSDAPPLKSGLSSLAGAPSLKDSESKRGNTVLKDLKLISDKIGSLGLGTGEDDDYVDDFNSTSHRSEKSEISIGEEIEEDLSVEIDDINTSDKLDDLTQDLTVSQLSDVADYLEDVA
UniProt Q9NWM8: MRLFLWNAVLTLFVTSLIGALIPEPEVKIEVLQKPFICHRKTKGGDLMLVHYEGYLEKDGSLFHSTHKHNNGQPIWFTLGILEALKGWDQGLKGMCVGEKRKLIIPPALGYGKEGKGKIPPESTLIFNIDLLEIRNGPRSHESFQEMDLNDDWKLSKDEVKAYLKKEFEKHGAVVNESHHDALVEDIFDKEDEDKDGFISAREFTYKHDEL

log2 fold change, inactive:
FBXO5 (UniProt Q9UKT4) 0.015
FEM1B (UniProt Q9UK73) -0.022
FKBP7 (UniProt Q9Y680) 0.008
FAM76B (UniProt Q5HYJ3) 0.001
FIP1L1 (UniProt Q6UN15) 0.044
FBXO22 (UniProt Q8NEZ5) -0.083
FAM91A1 (UniProt Q658Y4) -0.346
FKBP15 (UniProt Q5T1M5) 0.075
FKBP3 (UniProt Q00688) -0.02
FBXO7 (UniProt Q9Y3I1) -0.026
FDX2 (UniProt Q6P4F2) 0.045
FDFT1 (UniProt P37268) 0.004
FBXL20 (UniProt Q96IG2) -0.112
FKBPL (UniProt Q9UIM3) -0.057
FARS2 (UniProt O95363) -0.11
FBXO30 (UniProt Q8TB52) 0.01
FHL2 (UniProt Q14192) -0.027
FECH isoform 2 (UniProt P22830) 0
FAM50A (UniProt Q14320) -0.001
FBL (UniProt P22087) 0.13
FBLL1 (UniProt A6NHQ2) 0.061
FBXO3 (UniProt Q9UK99) 0.001
FN3KRP (UniProt Q9HA64) 0.016
FLVCR1 (UniProt Q9Y5Y0) -0.033
FAM8A1 (UniProt Q9UBU6) -0.119
FGFR1OP (UniProt O95684) 0.001
FKBP14 (UniProt Q9NWM8) -0.115
FGF13 isoform 3 (UniProt Q92913) 0.007
FBXO6 (UniProt Q9NRD1) -0.017
FKBP2 (UniProt P26885) -0.065
FAM32A (UniProt Q9Y421) 0.061
FDPS (UniProt P14324) -0.026
FNBP4 isoform 2 (UniProt Q8N3X1) 0.004
FAM98B (UniProt Q52LJ0) 0.123
FARSB (UniProt Q9NSD9) 0.011
FAM98A (UniProt Q8NCA5) 0.174
FAU (UniProt P62861) 0.099
FIS1 (UniProt Q9Y3D6) -0.03
FAM3C (UniProt Q92520) 0.021

compound: c1cc(OCCN2CCCCC2)cc(-c2n[nH]c3ccc(-c4nnc[nH]4)cc23)c1; experiment: as above
In short: as §1

log2 fold change, inactive:
FBXO5 (UniProt Q9UKT4) -0.005
FEM1B (UniProt Q9UK73) -0.063
FKBP7 (UniProt Q9Y680) -0.097
FAM76B (UniProt Q5HYJ3) 0.068
FIP1L1 (UniProt Q6UN15) -0.119
FBXO22 (UniProt Q8NEZ5) 0.021
FAM91A1 (UniProt Q658Y4) -0.084
FKBP15 (UniProt Q5T1M5) -0.077
FKBP3 (UniProt Q00688) 0.054
FBXO7 (UniProt Q9Y3I1) -0.052
FDX2 (UniProt Q6P4F2) 0.04
FDFT1 (UniProt P37268) 0.093
FBXL20 (UniProt Q96IG2) 0
FKBPL (UniProt Q9UIM3) -0.038
FARS2 (UniProt O95363) 0.005
FBXO30 (UniProt Q8TB52) -0.004
FHL2 (UniProt Q14192) -0.019
FECH isoform 2 (UniProt P22830) 0.38
FAM50A (UniProt Q14320) -0.019
FBL (UniProt P22087) -0.237
FBLL1 (UniProt A6NHQ2) -0.268
FBXO3 (UniProt Q9UK99) -0.12
FN3KRP (UniProt Q9HA64) 0.024
FLVCR1 (UniProt Q9Y5Y0) -0.088
FAM8A1 (UniProt Q9UBU6) -0.014
FGFR1OP (UniProt O95684) -0.075
FKBP14 (UniProt Q9NWM8) -0.014
FGF13 isoform 3 (UniProt Q92913) 0.108
FBXO6 (UniProt Q9NRD1) 0.026
FKBP2 (UniProt P26885) -0.04
FAM32A (UniProt Q9Y421) -0.061
FDPS (UniProt P14324) -0.069
FNBP4 isoform 2 (UniProt Q8N3X1) -0.051
FAM98B (UniProt Q52LJ0) -0.122
FARSB (UniProt Q9NSD9) -0.026
FAM98A (UniProt Q8NCA5) -0.108
FAU (UniProt P62861) -0.185
FIS1 (UniProt Q9Y3D6) -0.006
FAM3C (UniProt Q92520) 0.007
